# Measurements from patent US20080102065A1.
# No constants are given. Whether binding was seen depends on the method and setting. Some entries that bind do so weakly or less than the wild type. Sequences can lack the tags named with a protein.
# T1: mouse EpoR (muEpoR) (mouse) (UniProt P14753)
# T1 sequence (looked up): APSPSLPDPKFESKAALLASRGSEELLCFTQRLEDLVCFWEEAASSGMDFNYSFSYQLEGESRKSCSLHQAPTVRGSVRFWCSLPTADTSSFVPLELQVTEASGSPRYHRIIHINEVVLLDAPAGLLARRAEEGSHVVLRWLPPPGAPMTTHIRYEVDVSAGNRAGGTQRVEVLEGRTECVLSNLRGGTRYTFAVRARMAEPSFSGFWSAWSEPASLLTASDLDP
# Experiments:
# [1] = molecular target: T1, mouse EpoR (muEpoR) (mouse); experiment: ELISA, muEpoR coated, scFv-Fc 5 ug/ml
# [2] = molecular target: cynomolgus monkey EpoR (cynoEpoR) (cynomolgus monkey); experiment: ELISA on coated cynoEpoR, scFv-Fc at 5 µg/ml (Example 17)
# [3] = molecular target: cynomolgus monkey EpoR (cynoEpoR) (cynomolgus monkey); experiment: ELISA, cynoEpoR coated, scFv-Fc 5 ug/ml
# [4] = molecular target: T1, mouse EpoR (muEpoR) (mouse); experiment: ELISA on coated muEpoR, scFv-Fc at 5 µg/ml (Example 17)
Binder,binding [1],binding [2],binding [3],binding [4]
Mxb 276 (clone 276 scFv-Fc protein) (Fc fusion) VH: EVQLVQSGGGLVQPGGSLRLSCAASGFTFSSYWMSWVRQAPGKGLEWVANIKPDGSEKYYVDSVKGRFTISRDNAKNSVYLQMNSLRAEDTAVYYCARVSRGGSYSDWGRGTMVTVSS VL: QSVLTQPPSASGSPGQSVTISCTGTSSDVGGFNYVSWYQKYPGKAPKLVIYEVSKRPSGVPDRFSGSKSGNTASLTVSGLQAEDEADYYCSSWAPGKNLFGGGTKLTVL,binds,binds,binds,binds
Mxb 323 (clone 323 scFv-Fc protein) (Fc fusion) VH: QVQLVESGGGLVQPGGSLRLSCAVSGFTFSKYWMTWVRQAPGKGLEWVANIKPDGSEKYYVESVKGRFTISRDNAKNSVYLQMNSVRAEDTAVYYCARVSRGGSFSDWGRGTMVTVSS VL: QSALTQPASVSGSPGQSITISCTGTSSDVGSYNLVSWYQQHPGKVPKLIIYEVSNRPSGVSHRFSGSKSGNTASLTISGLQAEDEADYYCSSLTSSGTWVFGGGTKVTVL,binds,binds,binds,binds
Mxb 352 (clone 352 scFv-Fc protein) (Fc fusion) VH: EVQLVQSGGGLVQPGGSLRLSCAASGFRFSSYWMTWVRQAPGKGLEWVANIKPDGSEKYYVDSVKGRFTMSRDNAKNSVYLQMNSLRAEDTAVYYCARVSRGGSFSDWGQGTLVTVSS VL: QSALTQPASVSGSPGQSITIPCTGTSSDIGTYDYVSWYQQHPGKVPKVIIYEVTNRPSGVSNRFSGSKSGNTASLTISGLQADDEADYYCNSFTKNNTWVFGGGTKLTVL,binds,binds,binds,binds
Mxb 378 (clone 378 scFv-Fc protein) (Fc fusion) VH: QVQLVESGGGLVQPGRSLILSCAVSGFTFSKYWMTWVRQAPGKGLEWVANIKPDGSEKYYVESVKGRFTISRDNAKNSVYLQMNSVRAEDTAVYYCARVSRGGSFSDWSQGTLVTVSS VL: QSALTQPPSASGSPGQSVTISCTGTSGDVGAYNYVSWYQQYPGKAPKLMIYEVSKRPSGVPDRFSGSKSGNTASLTVSGLQAEDEADYYCNSYRGSNGPWVFGGGTKVTVL,binds,binds,binds,binds
Mxb 13 (clone 13 scFv-Fc protein) (Fc fusion) VH: QVQLQQSGGGVVQPGRSLRLSCAASGFTFSDYAMHWVRQAPGKGLEWVAVISNHGKSTYYADSVKGRFTISRDNSKHMLYLQMNSLRADDTALYYCARDIALAGDYWGQGTLVTVSA VL: DIQMTQSPSSLSASVGDRVTITCRASQSISSYLNWYQQLPGKVPKLLIYGASKLQSGVPSRFSGSGSGTDFTLTISSLQPEDFATYYCLQDYNYPLTFGPGTRLEIK,,binds,binds,
Mxb 15 (clone 15 scFv-Fc protein) (Fc fusion) VH: QVQLQESGPGLVRPSGTLSLTCAVSGGSIGSSNWWSWVRQAPGKGLEWIGEISQSGSTNYNPSLKGRVTISLDRSRNQLSLKLSSVTAADTAVYYCARQLRSIDAFDIWGPGTTVTVSA VL: SYVLTQPPSVSVSPGLTATITCSGDKLGDKYASWYQQKPGQSPVLVIYQDRKRPSGIPERFSGSNSGNTATLTISGTQAVDEADYYCQAWDSDTSYVFGTGTQLTVL,,binds,binds,
Mxb 16 (clone 16 scFv-Fc protein) (Fc fusion) VH: QVQLQESGPGLVKPSETLSLTCTVSGGYINNYYWSWIRQPPGKGLEWIGYIHYSGSTYYNPSLKSRVTISEDTSKNQFSLKLSSATAADTAVYYCARVGYYYDSSGYNLAWYFDLWGRGTLVTVSA VL: SSELTQDPAVSVALGQTVRITCQGDNLRSYSATWYQQKPGQAPVLVLFGENNRPSGIPDRFSGSKSGDTAVLTITGTQTQDEADYYCTSRVNSGNHLGVFGPGTQLTVL,,binds,binds,
Mxb 34 (clone 34 scFv-Fc protein) (Fc fusion) VH: QVQLQQSGAEVKKPGASVKVSCKASGYTFSGYYMHWVRQAPGQGLEWMGWINPNSGSTNYAQKFLGRVTMTRDTSISTAYMELSSLRSDDTAVYYCARGHSGDYFDYWGQGTLVTVSA VL: EIVLTQSPSSLSASVGDRVTITCRASQSVSSWLAWYQQRPGQAPKLLIYAARLRGGGPSRFSGSGSGTEFTLTISSLQPEDFATYFCQQSYSTPISFGGGTKLEIK,,binds,binds,
Mxb 295 (clone 295 scFv-Fc protein) (Fc fusion) VH: EVQLVESGGGLVQPGGSLRLSCAASGFTFSSYAMSWVRQAPGKGLEWVSGISGSGSSEGGTYYADSVKGRFTLSRDNSKNTLYLQMNSLRAEDTALYYCVKDRPSRYSFGYYFDYWGRGTLVTVSS VL: LPVLTQPPSVSVSPGQTASIACSGNKLGDKYVSWYQQKPGQSPLLVIYQDTKRPSGIPERFSGSNSGNTATLTISGTQAMDEADYYCQAWDSSTDVVFGGGTKLTVL,,binds,binds,
Mxb 307 (clone 307 scFv-Fc protein) (Fc fusion) VH: EVQLVESGGGLVQPGGSLRLSCAVSGFTFSKYWMTWVRQAPGKGLEWVANIKPDGSEKYYVESVKGRFTISRDNAKNSVYLQMNSVRAEDTAVYYCARVSRGGSFSDWGQGTMVTVSS VL: QSVLTQPPSASGSPGQSVTISCTGTSSDVGGYNYVSWYQQHPDKAPRLMIYDVNKRPSGVPDRFSGSKSGNTASLTVSGLQAEDEAHYYCNSYAGSNNWVFGGGTQLTVL,,binds,binds,
Mxb 318 (clone 318 scFv-Fc protein) (Fc fusion) VH: QVQLVESGGGLVQPGGSLRLSCAVSGFTFSKYWMTWVRQAPGKGLEWVANIKPDGSEKYYVESVKGRFTISRDNAKNSVYLQMNSVRAEDTAVYYCARVSRGGSFSDWGQGTLVTVSS VL: QSVLTQPPSASGSPGQSVTISCTGTSSDVGGYNYVSWYQQHPGRAPKLIIYEVSKRPSGVPDRFSGSKSGNTASLTVSGLQADDEADYYCNSYAGSIYVFGSGTKVTVL,,binds,binds,
Mxb 319 (clone 319 scFv-Fc protein) (Fc fusion) VH: QVQLVQSGAEIKKPGASVKVSCKTFGSPFSTNDIHWVRQAPGQGLEWMGIIDTSGAMTRYAQKFQGRVTVTRETSTSTVYMELSSLKSEDTAVYYCAREGCTNGVCYDNGFDIWGQGTLVTVSS VL: DIQMTQSPSTLSASIGDRVTITCRASEGIYHWLAWYQQKPGKAPKLLIYKASSLASGAPSRFSGSGSGTDFTLTISSLQPDDFATYYCQQYSNYPLTFGGGTKLEIK,,binds,binds,
